Measured values from publication PMC7217487.
Results are given in words; binding and its absence hold for the method and conditions named. Some results given as binding are weak or reduced against the parent protein; the word gives no strength. Tags and fused reporters may be left off the sequences shown.

T1: recombinant sIFN-λR1-Fc (human) (UniProt Q8IU57)
T1 sequence: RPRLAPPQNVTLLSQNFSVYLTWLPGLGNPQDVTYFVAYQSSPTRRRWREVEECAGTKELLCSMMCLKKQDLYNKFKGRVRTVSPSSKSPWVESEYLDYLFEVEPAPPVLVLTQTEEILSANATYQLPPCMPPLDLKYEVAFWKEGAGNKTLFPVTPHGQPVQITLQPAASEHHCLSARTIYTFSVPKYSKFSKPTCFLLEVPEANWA

T2: IFN-λR1, full length membrane form (human (endogenous in primary hepatocytes, NHBE cells, PBMCs)) (UniProt Q8IU57)
T2 sequence: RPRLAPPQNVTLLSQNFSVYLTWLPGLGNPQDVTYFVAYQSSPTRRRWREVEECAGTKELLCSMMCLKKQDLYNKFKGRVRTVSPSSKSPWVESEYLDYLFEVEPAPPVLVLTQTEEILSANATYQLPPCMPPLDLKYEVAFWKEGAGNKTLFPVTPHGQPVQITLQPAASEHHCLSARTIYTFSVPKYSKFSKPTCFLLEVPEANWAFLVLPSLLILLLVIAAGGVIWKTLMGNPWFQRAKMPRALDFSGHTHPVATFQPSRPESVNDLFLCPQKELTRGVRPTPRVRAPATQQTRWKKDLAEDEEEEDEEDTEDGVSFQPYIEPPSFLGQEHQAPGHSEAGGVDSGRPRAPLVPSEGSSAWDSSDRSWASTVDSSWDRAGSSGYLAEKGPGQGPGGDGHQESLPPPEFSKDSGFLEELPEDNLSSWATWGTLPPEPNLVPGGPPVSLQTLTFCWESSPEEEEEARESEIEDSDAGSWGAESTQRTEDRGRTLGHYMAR


How the values were obtained:
[1] = molecular target: T1, recombinant sIFN-λR1-Fc (human); assay: flow cytometry on cells; His-tagged IFN-λ3 added to PBMCs or Huh7.5 cells together with sIFN-λR1-Fc, or after sIFN-λR1-Fc had bound to the cells for 45 min on ice and the cells were washed twice; Fc receptors blocked with human IgG; IFN-λ3 detected with anti-His PE; both purified
[2] = molecular target: T2, IFN-λR1, full length membrane form (human (endogenous in primary hepatocytes, NHBE cells, PBMCs)); assay: flow cytometry on cells; His-tagged protein (IFN-λ3 1, 2 or 5 μg/ml) in PBS with 1% BSA added to cells on ice for 60 min, washed, detected with anti-His PE; background of the secondary antibody alone subtracted; only the binder purified

Binder	binding [1]	binding [2]
His-tagged IFN-λ3 (ligand, UniProt Q8IZI9 22-196) VPVARLRGALPDARGCHIAQFKSLSPQELQAFKRAKDALEESLLLKDCKCRSRLFPRTWDLRQLQVRERPVALEAELALTLKVLEATADTDPALGDVLDQPLHTLHHILSQLRACIQPQPTAGPRTRGRLHHWLHRLQEAPKKESPGCLEASVTFNLFRLLTRDLNCVASGDLCV	binds	binds
OBCAM, 6 His-tagged control protein (protein, UniProt Q14982 28-322) GVPVRSGDATFPKAMDNVTVRQGESATLRCTIDDRVTRVAWLNRSTILYAGNDKWSIDPRVIILVNTPTQYSIMIQNVDVYDEGPYTCSVQTDNHPKTSRVHLIVQVPPQIMNISSDITVNEGSSVTLLCLAIGRPEPTVTWRHLSVKEGQGFVSEDEYLEISDIKRDQSGEYECSALNDVAAPDVRKVKITVNYPPYISKAKNTGVSVGQKGILSCEASAVPMAEFQWFKEETRLATGLDGMRIENKGRMSTLTFFNVSEKDYGNYTCVATNKLGNTNASITLYGPGAVIDGVN	–	no binding
